Assay [1] deals with T1, hCMV gM and gN co-expressed in HEK293T cells (human cytomegalovirus) (UniProt P16733).
T1 sequence 1: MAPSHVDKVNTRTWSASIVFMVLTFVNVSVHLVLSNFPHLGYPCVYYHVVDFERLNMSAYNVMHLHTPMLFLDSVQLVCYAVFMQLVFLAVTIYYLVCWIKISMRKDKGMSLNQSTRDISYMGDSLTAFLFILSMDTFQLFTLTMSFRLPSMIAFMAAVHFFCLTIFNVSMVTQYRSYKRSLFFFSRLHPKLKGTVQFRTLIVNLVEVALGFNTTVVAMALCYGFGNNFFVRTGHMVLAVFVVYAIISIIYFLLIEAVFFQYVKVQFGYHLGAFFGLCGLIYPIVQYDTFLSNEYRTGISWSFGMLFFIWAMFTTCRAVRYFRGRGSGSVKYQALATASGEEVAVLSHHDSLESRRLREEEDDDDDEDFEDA
T1 sequence 2: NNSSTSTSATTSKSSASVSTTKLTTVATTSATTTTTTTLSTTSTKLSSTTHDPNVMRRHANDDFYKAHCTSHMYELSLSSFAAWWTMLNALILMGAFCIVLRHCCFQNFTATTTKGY
Briefly: staining of transfected HEK293T.

The chains behind the UniProt entries cited, without tags or fusion partners. Residues count along the entry.
UniProt P06473, residues 32-906: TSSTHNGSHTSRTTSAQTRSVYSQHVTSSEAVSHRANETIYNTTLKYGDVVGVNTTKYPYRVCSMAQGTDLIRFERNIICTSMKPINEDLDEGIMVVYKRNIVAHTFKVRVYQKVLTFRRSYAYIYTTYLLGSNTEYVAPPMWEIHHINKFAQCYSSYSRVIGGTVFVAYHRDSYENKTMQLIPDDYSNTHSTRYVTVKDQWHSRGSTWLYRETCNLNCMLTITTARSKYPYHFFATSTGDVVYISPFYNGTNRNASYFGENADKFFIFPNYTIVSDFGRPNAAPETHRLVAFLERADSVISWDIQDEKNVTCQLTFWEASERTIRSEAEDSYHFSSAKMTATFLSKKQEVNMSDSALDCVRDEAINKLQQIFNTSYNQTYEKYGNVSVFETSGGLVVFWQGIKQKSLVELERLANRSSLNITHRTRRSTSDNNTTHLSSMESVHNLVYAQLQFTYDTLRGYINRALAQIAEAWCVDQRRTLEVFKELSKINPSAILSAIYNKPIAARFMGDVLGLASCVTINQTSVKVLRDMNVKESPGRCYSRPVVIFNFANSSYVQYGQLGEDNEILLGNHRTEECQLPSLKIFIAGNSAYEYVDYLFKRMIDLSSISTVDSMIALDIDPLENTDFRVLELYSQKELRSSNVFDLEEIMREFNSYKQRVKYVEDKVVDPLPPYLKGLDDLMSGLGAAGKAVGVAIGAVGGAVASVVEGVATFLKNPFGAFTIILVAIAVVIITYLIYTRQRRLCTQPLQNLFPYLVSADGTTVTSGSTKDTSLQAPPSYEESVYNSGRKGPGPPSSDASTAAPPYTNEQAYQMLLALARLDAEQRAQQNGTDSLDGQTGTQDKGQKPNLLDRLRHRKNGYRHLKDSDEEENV

In assay [2] the target is hCMV gB protein, full length, expressed in HEK293T cells (human cytomegalovirus) (UniProt P06473). Briefly: staining of transfected HEK293T.
Assay [3] has the same target. Briefly: summary of staining and cross-competition.

These are yes or no findings as the source states them, for the method shown. Some binding calls cover weakened binding; strength is not graded here.

B1: 6L3 (antibody, V domains shown)
VH: EVRLEESGGGLVQPGGSLRLSCAASGFTVSTTYMAWVRQAPGKGLEWVSLIHTGGIFGVGGTSYADSVKGRFTISRDTSKNTVSLQMSSLRVEDTAIYFCAREHRGTIDAFDAWGQGTVVIVSS
VL: DIHMTQSPSSLSASVGDRVTITCRASQNIRNYLNWYQHKPGKAPKLLIYTTSRLQSGVPSRFSGSGSGTDFTLTVNSLQPEDFASYYCQQSYDGWTFGQGTKVEMK
With B1, the binding result in assay [1] is reported as “binds”.

B2: 10C6 (antibody, V domains shown)
VH: AVQLVESGGGLAQPGRSLRLSCKVSGFSFSNFEMNWVRQAPGKGLEWIAYIDFTGSTIYYSDSVKGRFTISRDTARNSLYLQMNKLRVEDTAVYYCVRDAGRWGTSWYYFDYWGQGTLVTVSS
VL: QSVLTQPPSVSGAPGQRVTISCTGLSSNIGAGYDIHWYQQIPGKAPKLLIYGNNNRPSGVPDRFSGSKSGTSVSLAITGLQAEDEADYYCQSYDSSLNGWVFGGGTRLTVL
On to B2, for which the binding entry in assay [2] and in assay [3] was “binds” throughout.

B3: 5F1 (antibody, V domains shown)
VH: AVQLVESGGGLAQPGRSLRLSCKVSGFTFSSYEMNWVRQAPGKGLEWIAYIDFTGSTIYYADSVKGRFTISRDTARNSLYLQMNKLRVEDTAVYYCVRDAGRWGTSWYYFDYWGQGTLVTVSS
VL: QSVLTQPPSVSGAPGQRVTISCTGLSSNIGAGYDIHWYQQIPGKAPKLLIYGNNNRPSGVPDRFSGSKSGTSVSLAITGLQAEDEADYYCQSYDSSLNGWVFGGGTRLTVL
Turning to B3, the binding result in assay [2] and in assay [3] was “binds” each time.

B4: 2B11 (antibody, V domains shown)
VH: AVRLVESGGGLAQPGRSLRLSCQVSGFTFGSYEMNWVRQAPGKGLEWIAYIDFTGSTIYYADSVKGRFTISRNTARNSLYLQMNSLRVEDTAVYYCVRDAGRWGTSWYYFDYWGQGTRVTVSP
VL: QSVLTQPPSVSGAPGQRVTISCTGISSNIGAGYDIHWYQQIPGKAPKLLVYGNNNRPSGVPDRFSGSKSGTSVSLAITGLQVEDEADYYCQSYDNSLNGWVFGGGTRLTVL
In the case of B4, the binding entry in assay [2] and in assay [3] was “binds” throughout.

B5: 6B4 (antibody, V domains shown)
VH: QVQLVESGGGVVQPGRSLRLSCAASGFRFNEFNMHWVRQAPGKGLEWVAVISIDGRHKYNADSVEGRFTISRDNSRNTLYLQMNSLRVEDTALYYCVTDGKAVDGFSGILEFWGQGTPVTVST
VL: EIVLTQSPATLSLSPGERATLSCWASQSVGGYLAWYQQKPGQAPRLLIYDASIRATGIPARFSGSGSGTHFTLTINSLEPEDFAVYYCQQRNNWPPLTFGGGTKVEIK
Regarding B5, the binding entry in assay [2] and in assay [3] was “binds” in each case.

B6: 4H9 (antibody, V domains shown)
VH: AVQLVESGGGLVRPGGSLRLSCAASGFTFSSHEMHWVRQAPGKGLEWLSYIDFTGSIIYYADSVRGRFTISRDNTKKSLFLQMNSLRDEDTALYYCARDGGRWGTSWYYFDYWGQGVLVTVSS
VL: QSVLTQPPSVSGAPGQRVTITCTGSSSNFGAGYDGHWYQQLPGTAPKLLIYGSNRPSGVPDRFSGSKSGTSVSLAITGLQADDEADYYCQSYDSSLSAWVFGGGTKLTVL
Consider B6, for which the binding result in assay [2] and in assay [3] was “binds” in each case.

B7: 7H3 (antibody, V domains shown)
VH: QVQLVQSGAEVKNPGASVKVSCKASGYTFTDYYIHWVRQAPGQGLEWMGWFNPNSGGTNFVQNFQGRVTMTRDTSISTAYMELSRLRSDDTAMYYCAKDSAKTASAYYGLNFFYYGMDVWGQGTTVTVSS
VL: QSVLSQPPSASGTPGQRVTISCSGSSSNIGKNYVYWYQQVPGTAPKLLMFKNNQRPSGVPDRFSGSKSGTSASLAISGLRSEDEADYYCSAWDGSLSRPLFGGGTKVTVL
Consider B7, for which the binding result in assay [2] and in assay [3] was “binds” throughout.

The values are drawn from patent US20100092481A1.
